Patent US8507677B2, “Fluorescent probe” (The University of Tokyo, priority 2007, dated 2013)

Experiment: Optical characteristics (absorption/excitation spectra, fluorescence intensity ratio) in phosphate buffered solution of various pH values
Assay type: physicochemical
Protocol: All the measurements were performed in a 100 mM sodium phosphate buffered solution containing 0.1% DMSO as an auxiliary solvent.
For example, in the case of Compound 2 mentioned above, the value of the fluorescence intensity at 780 nm obtained with excitation at 750 nm relative to the fluorescence intensity at 780 nm obtained with excitation at 670 nm in an aqueous solution of pH 4 is slightly smaller than 2. The value of the fluorescence intensity at 780 nm obtained with excitation at 750 nm relative to the fluorescence intensity at 780 nm obtained with excitation at 670 nm decreases along with the increase of pH, and it becomes about 0.6 at pH 10. Thus, by measuring the fluorescence intensity ratio at 780 nm obtained with excitation at 670 nm and 750 nm, pH can be calculated. […]
Results of measurement of absorption spectra and excitation spectra of Compounds 1 to 5 in phosphate buffered solution of various pH values as well as ratios of absorbance at 750 nm or 725 nm to absorbance at 670 nm observed in the measurement and ratios of fluorescence intensity at 780 nm obtained by excitation with an excitation light of 750 nm or 760 nm to fluorescence intensity at 780 nm obtained by excitation with an excitation light of 670 nm observed in the measurement are shown in FIGS. 1 to 5. […]

CN(C)CCN(C)C1=C(/C=C/C2=[N+](C)c3ccccc3C2(C)C)CCC/C1=C\C=C1\N(C)c2ccccc2C1(C)C [Compound 2]
fluorescence intensity at 780 nm obtained with excitation at 750 nm relative to fluorescence intensity at 780 nm obtained with excitation at 670 nm (aqueous solution of pH 4): smaller than 2
fluorescence intensity at 780 nm obtained with excitation at 750 nm relative to fluorescence intensity at 780 nm obtained with excitation at 670 nm (pH 10): about 0.6
